# For at least one compound, name, drawing or mass did not settle the structure.
# Test system: TGFβ1-induced hHSC (α-SMA)
# Assay: α-SMA ELISA in TGFβ1-induced human primary hepatic stellate cells (single agents and combination matrix, EOB/EOHSA)
# Assay type: cell-based
# Details: for antifibrotic activity (α-SMA) as single agent: 1 h preincubation, TGFβ1 1 ng/ml, 48 h, FIG. 1
# Procedure: After 48 hours of incubation, the expression of α-SMA was measured by ELISA. […] Data are presented as mean (triplicates)±standard deviation (SD).
# Combinations were tested in a dose-response matrix format and analyzed according to the excess over Bliss (EOB) additivism model. […] Data are presented as mean of quadruplicates. (B) EOB scores were calculated as described in Materials and Methods. […] Data are presented as mean (quadruplicates)±standard deviation (SD).
# Combinations were tested in a dose-response matrix format and analyzed according to the excess over Bliss (EOB) additivism model. […] Data are presented as mean (quadruplicates)±standard deviation (SD).
# Then, 2-fold and 4-fold higher and lower concentrations were selected.
# The human primary hepatic stellate cells (hHSC) (Innoprot) were cultured under standard conditions, as described above.
SMILES,antifibrotic activity (α-SMA) (NTZ alone at 0.6 μM),antifibrotic activity (α-SMA) as single agent
"CC(=O)Oc1ccccc1C(=O)Nc1ncc([N+](=O)[O-])s1 [NTZ, [2-[(5-nitro-1,3-thiazol-2-yl)carbamoyl]phenyl]ethanoate]",almost no antifibrotic activity,anti-fibrotic activity
"CC(C)(Oc1ccc(CCNC(=O)c2ccc(Cl)cc2)cc1)C(=O)O [bezafibrate, Bezafibrate]",,weak activity
